The values below come from PMC8539224.

By UniProt entry, the sequences of proteins in these tests, tags left out. Where a name states a change or a piece, a line headed by the entry shows the natural chain unless it says otherwise.
UniProt P92978: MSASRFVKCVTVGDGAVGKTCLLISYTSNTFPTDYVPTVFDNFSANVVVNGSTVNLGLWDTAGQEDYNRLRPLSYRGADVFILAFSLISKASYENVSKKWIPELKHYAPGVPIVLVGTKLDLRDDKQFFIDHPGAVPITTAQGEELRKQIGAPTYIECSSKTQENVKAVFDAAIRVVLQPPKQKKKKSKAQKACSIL

For this test, the target named is T1, RIC2 (Arabidopsis downstream effector of ROP1) (Arabidopsis thaliana) (UniProt Q8GYU0).
T1 sequence: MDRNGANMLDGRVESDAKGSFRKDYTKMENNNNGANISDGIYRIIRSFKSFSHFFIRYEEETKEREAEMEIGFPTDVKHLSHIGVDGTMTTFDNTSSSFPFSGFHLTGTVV
Kind of test: two-hybrid; S. cerevisiae AH109 co-transformed with AtROP1 and its mutants in pGADT7-Dest and GEF2 or RIC2 in pGBKT7; leu- trp- selection for transformation, his- ade- selection for interaction (0, 1, 3 or 10 mM 3-AT where required).

Results are given in words; binding and its absence hold for the method and conditions named. Some binding calls cover weakened binding; strength is not graded here.

For “Arabidopsis ROP1 GTPase S97A (from UniProt P92978 1-197)”, the binding result is reported as “binds”.

For the substance “Arabidopsis ROP1 GTPase S97E (from UniProt P92978 1-197)”, the binding entry is “binds”.

Regarding “Arabidopsis ROP1 GTPase, constitutive active (CA, G15V) (from UniProt P92978 1-197)”, the binding result is reported as “binds”.

Regarding “Arabidopsis ROP1 GTPase, constitutive active (G15V) with S97A (from UniProt P92978 1-197)”, the binding entry is “binds”.

With “Arabidopsis ROP1 GTPase, constitutive active (G15V) with S97E (from UniProt P92978 1-197)”, the binding result was “binds”.

On to “Arabidopsis ROP1 GTPase, wild type (AtROP1 WT) (from UniProt P92978 1-197)”, for which the binding entry was “binds”.
